For 2 substances, binding results are on record in article PMC10490398.

No constants are given. Whether binding was seen depends on the method and setting. Binding calls can cover weak binding; strength is not graded here.

For test [1], the target named is T1, Curling Leaf 1 (CL1), MYB transcription factor of the KANADI family (rice (Oryza sativa L.)) (UniProt Q0J235).
T1 sequence: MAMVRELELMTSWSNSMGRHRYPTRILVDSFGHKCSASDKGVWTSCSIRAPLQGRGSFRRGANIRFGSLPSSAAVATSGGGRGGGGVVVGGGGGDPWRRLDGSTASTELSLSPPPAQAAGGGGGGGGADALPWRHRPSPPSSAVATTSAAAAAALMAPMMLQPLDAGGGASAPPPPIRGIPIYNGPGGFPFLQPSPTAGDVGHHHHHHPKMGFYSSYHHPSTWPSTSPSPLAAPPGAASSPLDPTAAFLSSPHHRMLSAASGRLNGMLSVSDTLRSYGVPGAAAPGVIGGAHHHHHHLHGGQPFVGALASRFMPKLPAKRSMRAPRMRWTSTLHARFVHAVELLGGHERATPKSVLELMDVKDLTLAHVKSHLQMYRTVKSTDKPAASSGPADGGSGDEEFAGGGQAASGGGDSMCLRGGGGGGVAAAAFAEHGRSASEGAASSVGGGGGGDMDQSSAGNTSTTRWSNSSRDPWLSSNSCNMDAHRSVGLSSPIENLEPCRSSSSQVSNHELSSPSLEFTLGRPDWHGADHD
Put plainly: two-hybrid; library screen: pGBKT7-CL1 as bait against a rice whole-tissue yeast library; selection on medium lacking histidine and adenine; 45 clones, 8 nonredundant genes.

For test [2], the target named is T1, Curling Leaf 1 (CL1), MYB transcription factor of the KANADI family (rice (Oryza sativa L.)). In words: two-hybrid; pairwise verification: AD vector with the target gene co-transformed with BD-CL1 into yeast; 30 °C; cultures spotted on SD/-Leu-Trp and SD/-Leu-Trp-His-Ade.

Regarding “OsMFS1 (MFS), called AP2/ERF protein MFS in the abstract (rice (Oryza sativa L.))”, the binding entry in test [1] and in test [2] was “binds” in each case.
“SRS5, alpha-tubulin protein (rice (Oryza sativa L.))”: the binding entry in test [1] and in test [2] was “binds” each time.
